According to US5411942A (Carlbiotech Ltd. A/S, priority 1989, dated 1995):

Experiment: general procedure: solution-phase peptide synthesis; DCC/HOSu; CPD-Y enzymatic coupling
Conditions: acetate (HAc)

Row | Substance | step yield (coupling step) [%] | final HPLC purity (coupling step) | step yield (late stage modification step) [%] | final HPLC purity (whole synthesis)
1 | BocAsnGlyGlyValOBzl | 70 |  |  | 
2 | HAc,H-AsnGlyGlyValCys(Acm)/NH2 (NGGVC; Cys(Acm); C-terminal amide; acetate salt; printed: Asn-Gly-Gly-Val-Cys) | 70 | at least 95% pure |  | 
3 | HCl, H-AsnGlyGlyValOBzl |  |  | 95 | 
4 | PEPTIDE1{N.A.G.V.[Cys(Acm)].[am]}$$$$V2.0 |  |  |  | mores than 95% pure
5 | PEPTIDE1{N.L.G.V.[Cys(Acm)].[am]}$$$$V2.0 | 33 |  |  | more than 95% pure

Strings that start with PEPTIDE1 are HELM notation: dots part the residues, brackets hold end groups and non-standard residues.
